PMC8518639 (Chemmedchem, 2021)

Assay: Caco-2 cell permeability assay
Assay type: in vitro ADME
Settings: human; for Papp at 90 min, 10 μM: Caco-2, Papp

- efflux ratio at 90 min, 10 μM (Caco-2): 2
- Papp at 90 min, 10 μM (Replicate 1, Direction A‐B): 0.5 ×10⁻⁶ cm/s
- Papp at 90 min, 10 μM (Replicate 1, Direction B‐A): 0.9 ×10⁻⁶ cm/s
- Papp at 90 min, 10 μM (Replicate 2, Direction A‐B): 0.4 ×10⁻⁶ cm/s
- Papp at 90 min, 10 μM (Replicate 2, Direction B‐A): 1 ×10⁻⁶ cm/s
SMILES: CC(C)NCC(O)COc1ccc(CC(N)=O)cc1 (centres unmarked) [Atenolol]
